Some of the results follow. Single values are uncertain, as repeats are few or missing.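 Cells were imaged in 1,536-well plates, and nuclei stained with an antibody against cleaved PARP were counted against all DNA-stained nuclei to give the apoptosis fraction. Screening doses were chosen to leave most cells alive, and resting and induced cleaved-PARP levels differ strongly between cell lines.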
Tests used:
Assay in all cases: cleaved PARP positive nuclei fraction relative to DMSO control; melanoma cells; higher = more apoptosis
Conditions in all cases: library dose: low library concentration; 72 h
[1] = system: 501Mel
[2] = system: A101D
[3] = system: A2058
[4] = system: C32
[5] = system: CBRC008 (line from a melanoma biopsy)
[6] = system: CBRC014 (line from a melanoma biopsy)
[7] = system: CBRC016 (line from a melanoma biopsy)
[8] = system: CBRC017 (line from a melanoma biopsy)
[9] = system: COLO792
[10] = system: COLO800
[11] = system: COLO829
[12] = system: G361
[13] = system: IPC-298
[14] = system: IST-MEL1
[15] = system: LB2518-MEL
[16] = system: LOXIMVI

| Structure (SMILES) | cleaved PARP positive nuclei fraction [1] | cleaved PARP positive nuclei fraction [2] | cleaved PARP positive nuclei fraction [3] | cleaved PARP positive nuclei fraction [4] | cleaved PARP positive nuclei fraction [5] | cleaved PARP positive nuclei fraction [6] | cleaved PARP positive nuclei fraction [7] | cleaved PARP positive nuclei fraction [8] | cleaved PARP positive nuclei fraction [9] | cleaved PARP positive nuclei fraction [10] | cleaved PARP positive nuclei fraction [11] | cleaved PARP positive nuclei fraction [12] | cleaved PARP positive nuclei fraction [13] | cleaved PARP positive nuclei fraction [14] | cleaved PARP positive nuclei fraction [15] | cleaved PARP positive nuclei fraction [16] |
| --- | --- | --- | --- | --- | --- | --- | --- | --- | --- | --- | --- | --- | --- | --- | --- | --- |
| O=C(O)c1ccc2c(c1)nc(Nc1cccc(Cl)c1)c1ccncc12 + COc1ccc2c(c1)CCC1C2CCC2(C)C(NCCCCCCN3C(=O)C=CC3=O)CCC12 [U73122] (first compound 0.4 µM, partner dose 0.4 µM) | 78.9% | 10.1% | 202% | 79.8% | 174% | 435% | 88.4% | 229% | 138% | 35.4% | 173% | 83.3% | 317% | 100% | 38.7% | 71.3% |
| CCCS(=O)(=O)Nc1ccc(F)c(C(=O)c2c[nH]c3ncc(Cl)cc23)c1F + COc1ccc2c(c1)CCC1C2CCC2(C)C(NCCCCCCN3C(=O)C=CC3=O)CCC12 [U73122] (first compound 0.08 µM, partner dose 0.4 µM) | 33.7% | 19.5% | 100% | 188% | 30% | 122% | 41.6% | 58% | 115% | 221% | 46.4% | 180% | 47.8% | 221% | 64.7% | 40.9% |
| O=C(O)c1ccc2c(c1)nc(Nc1cccc(Cl)c1)c1ccncc12 + N#Cc1c(O)c2c(-c3ccc(-c4ccccc4O)cc3)csc2[nH]c1=O [A769662] (first compound 0.4 µM, partner dose 2 µM) | 109% | 55.9% | 76.1% | 48.7% | 80.3% | 190% | 79.7% | 103% | 133% | 42.4% | 149% | 183% | 44.1% | 84.6% | 127% | 64.4% |
| CS(=O)(=O)CCNCc1ccc(-c2ccc3ncnc(Nc4ccc(OCc5cccc(F)c5)c(Cl)c4)c3c2)o1 [lapatinib] + O=C(O)C(=O)Nc1sc2c(c1C(=O)O)CCNC2 [TCS401] (first compound 0.8 µM, partner dose 1.66667 µM) | 89.1% | 21.9% | 67.7% | 112% | 226% | 97% | 75.1% | 105% | 117% | 36.3% | 88.8% | 42.2% | 69.8% | 43.2% | 43% | 25.1% |
| C=C(c1ccc(C(=O)O)cc1)c1cc2c(cc1C)C(C)(C)CCC2(C)C [Bexarotene] + O=C1NC(=O)/C(=C/c2ccc(-c3ccc(F)cc3O)o2)S1 [AS252424] (first compound 2 µM, partner dose 1 µM) | 65.4% | 21.3% | 49.8% | 264% | 274% | 117% | 151% | 177% | 129% | 66% | 151% | 88.1% | 98.5% | 85.1% | 206% | 67.3% |
| O=C(O)c1ccc2c(c1)nc(Nc1cccc(Cl)c1)c1ccncc12 + CCCCCCCCCCCC1=C(O)C(=O)C=C(O)C1=O [Embelin] (first compound 0.4 µM, partner dose 1.2 µM) | 61.2% | 35.8% | 50.9% | 189% | 51.2% | 253% | 139% | 135% | 189% | 15.7% | 124% | 169% | 101% | 85.9% | 208% | 126% |
| CN1CCN(c2ccc3nc(-c4c(N)c5c(F)cccc5[nH]c4=O)[nH]c3c2)CC1 [Dovitinib] + O=C(O)C(=O)Nc1sc2c(c1C(=O)O)CCNC2 [TCS401] (first compound 0.1 µM, partner dose 1.66667 µM) | 143% | 20.4% | 52.4% | 55.1% | 106% | 92.6% | 23.9% | 74% | 85.4% | 145% | 156% | 189% | 99.3% | 69.2% | 39.3% | 73.4% |
| CS(=O)(=O)CCNCc1ccc(-c2ccc3ncnc(Nc4ccc(OCc5cccc(F)c5)c(Cl)c4)c3c2)o1 [lapatinib] + CC(C)CCN1c2nc(Nc3cc(F)c(O)c(F)c3)ncc2N(C)C(=O)C1C [BID1870] (first compound 0.8 µM, partner dose 0.2 µM) | 90% | 42.6% | 81% | 35.8% | 140% | 130% | 50.4% | 134% | 149% | 98.8% | 109% | 235% | 150% | 89.1% | 35.2% | 150% |
| CNC(=O)c1cc(Oc2ccc(NC(=O)Nc3ccc(Cl)c(C(F)(F)F)c3)cc2)ccn1 [sorafenib] + Cc1cc([N+](=O)[O-])ccc1NS(=O)(=O)c1cc(Cl)ccc1Cl [FH535] (first compound 0.4 µM, partner dose 1 µM) | 63.1% | 24.2% | 17.6% | 136% | 899% | 220% | 448% | 335% | 93% | 42% | 64.3% | 152% | 167% | 200% | 62.6% | 416% |
| CCCS(=O)(=O)Nc1ccc(F)c(C(=O)c2c[nH]c3ncc(Cl)cc23)c1F + Cn1cc(/C=C2\C(=O)Nc3cccnc32)c2ccccc21 [GW441756] (first compound 0.08 µM, partner dose 0.4 µM) | 54.6% | 35.4% | 47.9% | 99.5% | 125% | 139% | 58.1% | 122% | 92.9% | 81.7% | 28.7% | 130% | 46.6% | 99.3% | 195% | 42.5% |
| CCCS(=O)(=O)Nc1ccc(F)c(C(=O)c2c[nH]c3ncc(Cl)cc23)c1F + N#Cc1c(O)c2c(-c3ccc(-c4ccccc4O)cc3)csc2[nH]c1=O [A769662] (first compound 0.08 µM, partner dose 2 µM) | 208% | 38.9% | 99.4% | 370% | 62.3% | 114% | 54.3% | 71.3% | 43.7% | 99.2% | 120% | 77.8% | 398% | 146% | 67.6% | 59.7% |
| C[C@@H](Oc1cc(-c2cnn(C3CCNCC3)c2)cnc1N)c1c(Cl)ccc(F)c1Cl [Crizotinib] + CCCCCCCCCCCC1=C(O)C(=O)C=C(O)C1=O [Embelin] (first compound 0.2 µM, partner dose 1.2 µM) | 64.3% | 13.9% | 46.4% | 47.9% | 109% | 78.1% | 54.3% | 98.7% | 98.7% | 135% | 106% | 99.8% | 90.5% | 118% | 70.2% | 201% |
| CN1CCN(c2ccc3nc(-c4c(N)c5c(F)cccc5[nH]c4=O)[nH]c3c2)CC1 [Dovitinib] + COc1ccc2c(c1)CCC1C2CCC2(C)C(NCCCCCCN3C(=O)C=CC3=O)CCC12 [U73122] (first compound 0.1 µM, partner dose 0.4 µM) | 61.1% | 26.2% | 402% | 86.5% | 66.7% | 108% | 105% | 231% | 116% | 92% | 116% | 90.4% | 28.4% | 170% | 27.5% | 141% |
| Nc1ncn([C@H]2C[C@H](O)[C@@H](CO)O2)c(=O)n1 [decitabine] + COc1cc(N2CCC(N3CCN(C)CC3)CC2)ccc1Nc1ncc(Cl)c(Nc2ccccc2S(=O)(=O)C(C)C)n1 [NVP-TAE684] (first compound 0.1 µM, partner dose 0.08 µM) | 70.7% | 23% | 90.6% | 136% | 437% | 54.2% | 90.7% | 100% | 211% | 100% | 50% | 101% | 176% | 112% | 128% | 138% |
| Cn1c(=O)n(-c2ccc(C(C)(C)C#N)cc2)c2c3cc(-c4cnc5ccccc5c4)ccc3ncc21 + CCCCCCCCCCCC1=C(O)C(=O)C=C(O)C1=O [Embelin] (first compound 0.004 µM, partner dose 1.2 µM) | 56.3% | 14.1% | 203% | 189% | 50.6% | 82% | 61.2% | 83.1% | 132% | 37.5% | 363% | 142% | 92.7% | 114% | 67.9% | 53.3% |
| C[C@@H](Oc1cc(-c2cnn(C3CCNCC3)c2)cnc1N)c1c(Cl)ccc(F)c1Cl [Crizotinib] + O=c1cc(-c2cccc3c2Sc2ccccc2S3)oc(N2CCOCC2)c1 [KU55933] (first compound 0.2 µM, partner dose 1 µM) | 52.4% | 19.9% | 40.6% | 97.3% | 235% | 77.9% | 74% | 69.6% | 97.4% | 134% | 95.2% | 86.9% | 91.3% | 39.8% | 60.5% | 43.4% |
| Nc1ncn([C@H]2C[C@H](O)[C@@H](CO)O2)c(=O)n1 [decitabine] + COC(=O)c1sccc1S(=O)(=O)Nc1ccc(Nc2ccccc2)cc1OC [GSK0660] (first compound 0.1 µM, partner dose 1 µM) | 66.3% | 16.3% | 441% | 97.9% | 73% | 95.3% | 64.2% | 101% | 114% | 135% | 324% | 262% | 216% | 118% | 79.6% | 64.7% |
| O=C(O)[C@@H]1[O][Sb](=[O])([O][Sb]2(=[O])[O][C@H]([C@H](O)CO)[C@H](O)[C@H](C(=O)O)[O]2)[O][C@H]([C@H](O)CO)[C@@H]1O (stereo partly drawn) [stibogluconate] + Oc1nc(-c2ccc(C(F)(F)F)cc2)nc2c1CSCC2 [XAV939] (first compound 2 µM, partner dose 2 µM) | 62.7% | 27.4% | 70.8% | 88% | 88.7% | 76.3% | 40.5% | 79.1% | 25.5% | 133% | 75.4% | 126% | 223% | 75.1% | 68% | 127% |

Some of the entries so far, bar-delimited.
Structure (SMILES) | cleaved PARP positive nuclei fraction [1] | cleaved PARP positive nuclei fraction [2] | cleaved PARP positive nuclei fraction [3] | cleaved PARP positive nuclei fraction [4] | cleaved PARP positive nuclei fraction [5] | cleaved PARP positive nuclei fraction [6] | cleaved PARP positive nuclei fraction [7] | cleaved PARP positive nuclei fraction [8] | cleaved PARP positive nuclei fraction [9] | cleaved PARP positive nuclei fraction [10] | cleaved PARP positive nuclei fraction [11] | cleaved PARP positive nuclei fraction [12] | cleaved PARP positive nuclei fraction [13] | cleaved PARP positive nuclei fraction [14] | cleaved PARP positive nuclei fraction [15] | cleaved PARP positive nuclei fraction [16]
CNC(=O)c1cc(Oc2ccc(NC(=O)Nc3ccc(Cl)c(C(F)(F)F)c3)cc2)ccn1 [sorafenib] + Cc1cc([N+](=O)[O-])ccc1NS(=O)(=O)c1cc(Cl)ccc1Cl [FH535] (first compound 0.4 µM, partner dose 1 µM) | 63.1% | 24.2% | 17.6% | 136% | 899% | 220% | 448% | 335% | 93% | 42% | 64.3% | 152% | 167% | 200% | 62.6% | 416%
CCCS(=O)(=O)Nc1ccc(F)c(C(=O)c2c[nH]c3ncc(Cl)cc23)c1F + Cn1cc(/C=C2\C(=O)Nc3cccnc32)c2ccccc21 [GW441756] (first compound 0.08 µM, partner dose 0.4 µM) | 54.6% | 35.4% | 47.9% | 99.5% | 125% | 139% | 58.1% | 122% | 92.9% | 81.7% | 28.7% | 130% | 46.6% | 99.3% | 195% | 42.5%
CCCS(=O)(=O)Nc1ccc(F)c(C(=O)c2c[nH]c3ncc(Cl)cc23)c1F + N#Cc1c(O)c2c(-c3ccc(-c4ccccc4O)cc3)csc2[nH]c1=O [A769662] (first compound 0.08 µM, partner dose 2 µM) | 208% | 38.9% | 99.4% | 370% | 62.3% | 114% | 54.3% | 71.3% | 43.7% | 99.2% | 120% | 77.8% | 398% | 146% | 67.6% | 59.7%
